{"source": "patent US20050282814A1", "about": "“Vasculostatic agents and methods of use thereof” (TargeGen, Inc., priority 2002, published 2005)", "test_system": "IL-2 induced VLS", "experiment": "IL-2 induced vascular leak syndrome (VLS), organ wet/dry weight", "type": "in vivo, BalbC mice", "details": "compound D 1 mg/kg range, compound E 0.1 mg/kg range", "key": {"[1]": {"details": "9 injections of IL-2 and/or compound over 4 days"}}, "note": "Some results were stated once for a whole list of compounds, not compound by compound."}
{"smiles": "Nc1nc(N)c2nc(-c3cccc(O)c3)c(-c3cccc(O)c3)nc2n1.O=S(=O)(O)O", "note": "[compound E]", "values": [{"measurement": "reduction of VLS in the heart", "setting": "[1]", "result": "> 100", "unit": "%"}, {"measurement": "reduction of VLS in the spleen", "setting": "[1]", "result": "> 100", "unit": "%"}, {"measurement": "reducing VLS in vivo", "result": "80-100%"}]}
